# Measurements reported in US12390441B2, “Immunomodulating o-het/aryl azalides” (Zoetis Services LLC, priority 2020, dated 2025).
# At least one compound was matched to its structure with a doubt left.
# Tested on: P. multocida 46572
# Test: In vivo mouse lung infection challenge model (murine)
# Set-up: species or system CD-1 female mice
# Description: The challenge organism was P. multocida 46572. Target challenge concentration was 5×10^2 CFU/mouse. Isolated colonies from overnight growth (37° C. with 5% CO2) on trypticase soy agar (TSA II) blood plates were transferred to room temperature Brain Heart Infusion Broth (BHIB). The broth culture was incubated 3.5-4 hours to approximately mid-log phase of growth, as measured by forward light scatter at 600 nm (OD600, 0.200). The culture was centrifuged to collect the bacterial pellet. The pellet was re-suspended in BHIB and adjusted to provide an approximate concentration of 2.7 log^10 colony forming units (CFU) in 0.04 mL at the highest concentration. The challenge inoculum concentration was confirmed by serial dilutions of the inoculum for CFU enumeration. On Day −5, CD-1 female mice were received. Mice were given standard rodent diet and water ad libitum. […]
# The murine efficacy model (P. multocida challenge) was optimized, and the treatment group size was powered to be able to observe statistically significant improvement of survival to expected ranges for immunomodulatory compounds. […] Mortality data was analyzed using a generalized mixed model with fixed effect of treatment and random effect of block. Survival time was also analyzed using the SAS PHREG (survival analysis) procedure to examine whether there were significant differences between treatment groups and the control group. […]
compound,measurement,value
"CC[C@H]1OC(=O)[C@H](C)[C@@H](O[C@H]2C[C@@](C)(OC)[C@@H](O)[C@H](C)O2)[C@H](C)[C@@H](O[C@@H]2O[C@H](C)C[C@H](NC)[C@H]2Oc2cncc(C(F)(F)F)c2)[C@](C)(O)C[C@@H](C)CN(C)[C@H](C)[C@@H](O)[C@]1(C)O [Example A-13, (2R,3S,4R,5R,8R,10R,11R,12S,13S,14R)-2-ethyl-3,4,10-trihydroxy-13-(((2R,4R,5S,6S)-5-hydroxy-4-methoxy-4,6-dimethyltetrahydro-2H-pyran-2-yl)oxy)-3,5,6,8,10,12,14-heptamethyl-11-(((2S,3R,4S,6R)-6-methyl-4-(methylamino)-3-((5-(trifluoromethyl)pyridin-3-yl)oxy)tetrahydro-2H-pyran-2-yl)oxy)-1-oxa-6-azacyclopentadecan-15-one]","clinical efficacy, P. multocida infection in mice",clinically efficacious
